According to publication doi:10.1101/2023.02.03.526966:
No constants are given. Whether binding was seen depends on the method and setting. In cells and extracts the contact can be indirect. Some entries that bind do so weakly or less than the wild type. Sequences can lack the tags named with a protein.

What was measured:
[1] = target: T1, HA-eLAR-Myc (extracellular domain of human LAR fused to the PDGF receptor transmembrane domain) (human) (UniProt P10586); experiment: co-IP
T1 sequence: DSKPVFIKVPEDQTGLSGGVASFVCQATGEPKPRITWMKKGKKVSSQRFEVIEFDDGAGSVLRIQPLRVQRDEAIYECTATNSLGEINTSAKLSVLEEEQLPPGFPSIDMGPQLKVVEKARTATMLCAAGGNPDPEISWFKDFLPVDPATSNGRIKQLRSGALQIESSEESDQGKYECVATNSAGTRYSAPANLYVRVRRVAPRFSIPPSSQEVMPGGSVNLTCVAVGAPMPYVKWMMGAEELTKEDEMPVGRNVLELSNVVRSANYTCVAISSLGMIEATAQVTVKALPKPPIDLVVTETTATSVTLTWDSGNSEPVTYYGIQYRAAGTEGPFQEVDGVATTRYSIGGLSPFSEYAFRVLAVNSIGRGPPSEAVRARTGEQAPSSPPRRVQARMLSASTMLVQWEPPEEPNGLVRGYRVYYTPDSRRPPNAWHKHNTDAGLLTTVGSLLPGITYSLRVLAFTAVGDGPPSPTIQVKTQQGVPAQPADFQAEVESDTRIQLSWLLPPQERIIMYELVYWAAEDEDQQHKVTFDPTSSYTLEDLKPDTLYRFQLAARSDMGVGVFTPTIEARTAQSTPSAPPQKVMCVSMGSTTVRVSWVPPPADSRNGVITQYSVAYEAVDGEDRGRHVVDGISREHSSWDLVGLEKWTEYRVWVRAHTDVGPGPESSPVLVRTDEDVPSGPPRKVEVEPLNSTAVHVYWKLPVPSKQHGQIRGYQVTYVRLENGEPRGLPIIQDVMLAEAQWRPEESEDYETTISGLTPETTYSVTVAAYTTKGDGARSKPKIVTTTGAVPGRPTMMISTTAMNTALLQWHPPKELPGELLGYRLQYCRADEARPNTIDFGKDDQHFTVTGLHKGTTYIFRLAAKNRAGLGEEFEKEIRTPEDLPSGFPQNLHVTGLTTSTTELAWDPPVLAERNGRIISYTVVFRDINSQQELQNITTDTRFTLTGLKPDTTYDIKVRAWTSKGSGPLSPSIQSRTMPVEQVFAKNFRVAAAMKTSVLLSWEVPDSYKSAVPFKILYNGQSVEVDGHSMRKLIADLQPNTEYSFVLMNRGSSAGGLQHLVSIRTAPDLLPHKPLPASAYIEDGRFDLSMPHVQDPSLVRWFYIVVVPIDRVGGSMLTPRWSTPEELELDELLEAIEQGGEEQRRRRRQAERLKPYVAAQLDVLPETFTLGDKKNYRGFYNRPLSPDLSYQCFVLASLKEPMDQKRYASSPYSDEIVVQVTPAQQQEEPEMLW

[2] = target: T2, HA-ePTPRδ-Myc (extracellular domain of human PTPRδ fused to the PDGF receptor transmembrane domain) (human) (UniProt P23468); experiment: co-IP
T2 sequence: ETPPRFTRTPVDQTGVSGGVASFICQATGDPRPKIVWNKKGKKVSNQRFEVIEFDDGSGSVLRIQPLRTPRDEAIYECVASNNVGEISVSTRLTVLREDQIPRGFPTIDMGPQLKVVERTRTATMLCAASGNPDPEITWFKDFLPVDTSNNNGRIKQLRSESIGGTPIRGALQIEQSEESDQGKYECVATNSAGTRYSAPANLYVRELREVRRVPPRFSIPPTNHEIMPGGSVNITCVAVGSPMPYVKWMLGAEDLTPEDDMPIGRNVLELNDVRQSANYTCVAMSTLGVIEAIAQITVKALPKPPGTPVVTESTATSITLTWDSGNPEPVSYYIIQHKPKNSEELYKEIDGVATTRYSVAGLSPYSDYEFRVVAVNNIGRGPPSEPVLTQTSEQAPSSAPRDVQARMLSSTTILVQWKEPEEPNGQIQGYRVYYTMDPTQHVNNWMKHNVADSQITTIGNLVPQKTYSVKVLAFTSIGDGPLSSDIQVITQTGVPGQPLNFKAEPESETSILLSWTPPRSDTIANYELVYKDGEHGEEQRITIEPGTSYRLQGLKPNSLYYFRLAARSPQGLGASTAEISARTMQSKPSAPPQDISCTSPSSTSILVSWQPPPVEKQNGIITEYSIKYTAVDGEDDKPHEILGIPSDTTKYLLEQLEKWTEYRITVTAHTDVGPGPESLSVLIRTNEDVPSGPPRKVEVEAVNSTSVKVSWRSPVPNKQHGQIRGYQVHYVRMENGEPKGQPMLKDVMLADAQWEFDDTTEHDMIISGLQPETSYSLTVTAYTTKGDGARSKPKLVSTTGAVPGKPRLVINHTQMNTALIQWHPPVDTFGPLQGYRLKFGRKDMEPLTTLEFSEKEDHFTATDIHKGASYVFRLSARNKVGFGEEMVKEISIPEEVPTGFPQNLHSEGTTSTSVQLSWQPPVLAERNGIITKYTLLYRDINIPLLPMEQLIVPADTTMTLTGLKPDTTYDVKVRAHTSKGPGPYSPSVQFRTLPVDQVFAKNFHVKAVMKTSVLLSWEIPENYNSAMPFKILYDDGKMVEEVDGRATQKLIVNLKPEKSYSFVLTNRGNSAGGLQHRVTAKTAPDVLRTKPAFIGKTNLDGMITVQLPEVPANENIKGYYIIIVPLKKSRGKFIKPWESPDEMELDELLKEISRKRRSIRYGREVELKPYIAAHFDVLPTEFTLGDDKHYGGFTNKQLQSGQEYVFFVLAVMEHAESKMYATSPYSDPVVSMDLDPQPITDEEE

B1: mouse nidogen-2 (protein, UniProt O88322 31-1403)
chain: LRPDELFPYGESWGDQLLPEGDDESSAAVKLAIPLRFYDAQFSSLYVGTNGIISTQDFPRETQYVDDDFPTDFPAIAPFLADIDTSHSRGRILYREDTSGAVLSLAARYVRTGFPLSGSSFTPTHAFLATWEHVGAYEEVSRGAAPSGELNTFQAVLASDESDTYALFLYPANGLQFFGTRPKESYNVQLQLPARVGFCRGEADDLKREALYFSLTNTEQSVKNLYQLSNLGIPGVWAFHIGSRFALDNVRPATVGGDPSTARSSALEHPFSHAAALESYTEDSFHYYDENEEDVEYPPVEPGEAPEGHSRIDVSFNSKADPGLVDVGTSSPGSDRASPWPYPAPGNWPSYRETESASLDPQTKQGRPVGEGEVLDFRDPAELLDQMGTRAPAPPEADAALLTPVNEDLGGRNTQSYPEAGPVPSEPDVPVPPLEGEVLPHYPESGHVPPLRGGKYVIGLEDHVGSNDQVFTYNGANLETCEHSHGRCSQHAFCTDYTTGFCCHCQSRFYGNGKHCLPEGAPHRVNGKVSGRLRVGHIPVHFTDVDLHAYIVGNDGRAYTAISHVPQPAAQALLPVLPIGGLFGWLFALEKPGSENGFSLTGATFVHDVEVTFHPGEERVRITQTAEGLDPENYLSIKTNIEGQVPFIPANFTAHITPYKEFYHYRDSVVTSSSSRSFSLTSGSINQTWSYHIDQNITYQACRHAPRHLAIPATQQLTVDRAFALYSEDEGVLRFAVTNQIGPVEVDSAPVGVNPCYDGSHTCDTTARCHPGTGVDYTCECTPGFQGDGRSCVDVNECATGFHRCGPNSVCVNLVGSYRCECRSGYEFADDQHTCILIAPPPNPCLDGSHTCAPEGQARCIHHGGSSFSCACLPGFIGTGHQCSDVDECAENRCHEAAICYNTPGSFSCRCQPGYRGDGFHCTSDTVPEDSISGLKPCEYQQRYAQTQHAYPGSRIHIPQCDDQGNFVPLQCHGSTGFCWCVDRNGHEVPGTQTPPGSTPPHCGPPPEPTQRPRTVCERWRESLLEHYGGTPRDDQYVPQCDDLGHFIPLQCHGKSDFCWCVDKDGRELQGTRSQPGTRPACIPTVAPPVVRPTPRPDVTPPSVGTFLLYAQGQQIGHLPLNGSRLQKDAARTLLSLHGSIVVGIDYDCRERMVYWTDVAGRTISRASLEAGAEPETIITSGLISPEGLAIDHFRRTMYWTDSGLDKIERAELDGSERKVLFHTDLVNPRAITVDPIRGNLYWTDWNREAPKIETSSLDGENRRILINKDIGLPNGLTFDPFSKLLCWADAGTKKLECTLPDGTGRRVIQNHLNYPFSIVSYADHFYHTDWRRDGVISVNKDSGQFTDEFLPEQRSHLYGITAVYPYCPTGRK
For B1, the binding [1] was “binds” and the binding [2] was “binds”.

B2: mouse nidogen-1 (protein, UniProt P10493 29-1245)
chain: LNRQELFPFGPGQGDLELEAGDDVVSPSLELIGELSFYDRTDITSVYVTTNGIIAMSEPPATEYHPGTFPPSFGSVAPFLADLDTTDGLGNVYYREDLSPFIIQMAAEYVQRGFPEVSFQPTSVVVVTWESVAPYGGPSSSPAEEGKRNTFQAVLASSNSSSYAIFLYPEDGLQFFTTFSKKDESQVPAVVGFSKGLVGFLWKSNGAYNIFANDRESIENLAKSSNAGHQGVWVFEIGSPATAKGVVSADVNLDLDDDGADYEDEDYDLVTSHLGLEDVATPSPSHSPRRGYPDPHNVPRILSPGYEATERPRGVPTERTRSFQLPAERFPQHHPQVIDVDEVEETGVVFSYNTGSQQTCANNRHQCSVHAECRDYATGFCCRCVANYTGNGRQCVAEGSPQRVNGKVKGRIFVGSSQVPVVFENTDLHSYVVMNHGRSYTAISTIPETVGYSLLPLAPIGGIIGWMFAVEQDGFKNGFSITGGEFTRQAEVTFLGHPGKLVLKQQFSGIDEHGHLTISTELEGRVPQIPYGASVHIEPYTELYHYSSSVITSSSTREYTVMEPDQDGAAPSHTHIYQWRQTITFQECAHDDARPALPSTQQLSVDSVFVLYNKEERILRYALSNSIGPVRDGSPDALQNPCYIGTHGCDSNAACRPGPGTQFTCECSIGFRGDGQTCYDIDECSEQPSRCGNHAVCNNLPGTFRCECVEGYHFSDRGTCVAAEDQRPINYCETGLHNCDIPQRAQCIYMGGSSYTCSCLPGFSGDGRACRDVDECQHSRCHPDAFCYNTPGSFTCQCKPGYQGDGFRCMPGEVSKTRCQLEREHILGAAGGADAQRPTLQGMFVPQCDEYGHYVPTQCHHSTGYCWCVDRDGRELEGSRTPPGMRPPCLSTVAPPIHQGPVVPTAVIPLPPGTHLLFAQTGKIERLPLERNTMKKTEAKAFLHIPAKVIIGLAFDCVDKVVYWTDISEPSIGRASLHGGEPTTIIRQDLGSPEGIALDHLGRTIFWTDSQLDRIEVAKMDGTQRRVLFDTGLVNPRGIVTDPVRGNLYWTDWNRDNPKIETSHMDGTNRRILAQDNLGLPNGLTFDAFSSQLCWVDAGTHRAECLNPAQPGRRKVLEGLQYPFAVTSYGKNLYYTDWKTNSVIAMDLAISKEMDTFHPHKQTRLYGITIALSQCPQGHNYCSVNNGGCTHLCLPTPGSRTCRCPDNTLGVDCIERK
In the case of B2, the binding [1] is reported as “binds” and the binding [2] is reported as “binds”.
